Measured values published in PMC3760632.
Results are given in words; binding and its absence hold for the method and conditions named. In cells and extracts the contact can be indirect. Some entries that bind do so weakly or less than the wild type.

By UniProt entry, the sequences of proteins in these tests, tags left out. Residues count along the entry.
UniProt P38646, residues 47-679: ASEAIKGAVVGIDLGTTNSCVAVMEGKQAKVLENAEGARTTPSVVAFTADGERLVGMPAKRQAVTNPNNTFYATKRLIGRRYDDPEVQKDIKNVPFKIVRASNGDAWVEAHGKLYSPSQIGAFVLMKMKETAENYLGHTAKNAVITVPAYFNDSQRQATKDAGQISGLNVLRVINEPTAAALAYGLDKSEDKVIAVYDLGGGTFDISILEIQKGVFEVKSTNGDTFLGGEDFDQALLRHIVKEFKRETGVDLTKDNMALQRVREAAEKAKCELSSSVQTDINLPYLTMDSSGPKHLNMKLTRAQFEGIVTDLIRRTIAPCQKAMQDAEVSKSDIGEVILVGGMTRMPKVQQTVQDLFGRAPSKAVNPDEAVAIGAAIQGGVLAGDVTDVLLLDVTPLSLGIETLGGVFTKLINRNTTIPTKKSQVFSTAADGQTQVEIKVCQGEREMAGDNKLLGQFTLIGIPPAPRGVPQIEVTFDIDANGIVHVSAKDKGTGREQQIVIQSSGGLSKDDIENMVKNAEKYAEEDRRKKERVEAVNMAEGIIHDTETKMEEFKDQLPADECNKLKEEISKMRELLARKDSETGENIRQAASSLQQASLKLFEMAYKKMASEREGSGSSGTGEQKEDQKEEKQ

Biological target: HIV-1 Nef, full-length (HIV-1) (UniProt P03406)
Experiment: co-IP; second set of coimmunoprecipitation experiments with full-length Nef, without and with the SMRwt peptide

In the case of mortalin (from UniProt P38646 47-679), the binding is reported as “binds”.
